# Earlier results as cited in patent US20130005824A1, “TREATMENT OF ISCHEMIC TISSUE” (The Research Foundation of State University of New York, priority 2009, published 2013).
# Conditions: cited from earlier work
smiles,measurement,setting,value
"COc1cc(/C=C/C(=O)CC(=O)/C=C/c2ccc(O)c(OC)c2)ccc1O [curcumin, (E,E)-1,7-bis (4-hydroxy-3-methoxyphenyl)-1,6-heptadiene-3,5,-dione]",solubility in organic solvents and alkalis,"ethanol, alkalis, ketones, acetic acid and chloroform",soluble
same,solubility in water,water,insoluble
